# From PMC7819943, “Rice protein-binding microarrays: a tool to detect cis-acting elements near promoter regions in rice”
# Sequences of proteins named here, by UniProt entry; tags and fusion partners are left off.
# UniProt Q0JBA9, entry or part of it: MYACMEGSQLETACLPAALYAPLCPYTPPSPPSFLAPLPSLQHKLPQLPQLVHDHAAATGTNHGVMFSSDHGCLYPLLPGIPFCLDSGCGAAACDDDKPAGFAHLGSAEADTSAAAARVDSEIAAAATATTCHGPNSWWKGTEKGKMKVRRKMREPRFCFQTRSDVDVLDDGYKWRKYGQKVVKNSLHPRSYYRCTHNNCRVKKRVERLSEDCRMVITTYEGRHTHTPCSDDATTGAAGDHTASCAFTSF
# The other results are listed elsewhere or left out.
# Target: OsWRKY34 (Oryza sativa, UniProt Q0JBA9 1-250)
# Assay: protein-binding microarray (RPBM); PBS, 2% BSA, 51.3 ng/ul salmon testes DNA, 50 uM zinc acetate, 200 nM TF, 25 C, 1 h; high values mean tight binding
# Conditions: protein: recombinant; tags: N-terminal polyhistidine and DsRed monomer fusion (pET32a); label: CyDye5-dUTP incorporated in the synthesized complementary strand; 3' TTTTT single-stranded linker to array surface; dsDNA, one strand shown
# How it was run: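 The binding signal is fluorescence intensity per feature, in arbitrary units, read on an Axon 4000B scanner. Polyhistidine- and DsRed-tagged transcription factors (N-terminal fusions) from E. coli BL21-CodonPlus were purified on Ni–NTA and applied at 200 nM for 1 h at 25 °C to a double-stranded, BSA-blocked custom Agilent array in buffer with 50 µM zinc acetate.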
row,Sequence,binding signal
1,GTTTTATTTGTGTTTTGCTTTTCTTTTGGTCTCTCTTTTTCGGAGTCACCTAGTGCAG,14300 fluorescence intensity (a.u.)
2,TTTGTGGTTTGGATGTTTTTATCTGTGATTGAATGTATGACGGAGTCACCTAGTGCAG,9210 fluorescence intensity (a.u.)
3,GAGTTGGTTGTGGAGTGCACTGGAGAAGGGGTGGTTTTTGCGGAGTCACCTAGTGCAG,9160 fluorescence intensity (a.u.)
4,CATTTCTTGCTATCATTTTTTCGGGAGGCTTGTATGCCATCGGAGTCACCTAGTGCAG,9200 fluorescence intensity (a.u.)
5,TTCTTAACATGTTCGCATATGAAAATAGACTTATTTTTTACGGAGTCACCTAGTGCAG,8130 fluorescence intensity (a.u.)
6,TGGAGGGGTGAGGGAGGTGGAGCAGACGTCAGAGGGGAAGCGGAGTCACCTAGTGCAG,9450 fluorescence intensity (a.u.)
7,CGCCAACCGCCTCGTCGAGCTCTACTCCCGCGCGGGCCTCCGGAGTCACCTAGTGCAG,9200 fluorescence intensity (a.u.)
8,ATATGCTCTTTTCCACCATTTTGCAGGTTAAGGATAGACCCGGAGTCACCTAGTGCAG,9560 fluorescence intensity (a.u.)
9,TTCGCTTTTTCCTTTTTTCTGATTATTTTTTTAATTTTTACGGAGTCACCTAGTGCAG,8190 fluorescence intensity (a.u.)
10,CCTCATCTCATGCCTCACTCGCCTAGAACCCCTCCTCCTCCGGAGTCACCTAGTGCAG,9310 fluorescence intensity (a.u.)
11,ACCACCCACCGGTTTCGGTTTCGCCCACCATTGGAGGCGACGGAGTCACCTAGTGCAG,11500 fluorescence intensity (a.u.)
12,AGGGCACGGGAACGGGAGACGGGTGGGAGGGATTCGTATGCGGAGTCACCTAGTGCAG,10500 fluorescence intensity (a.u.)
13,TTCTGTCGCCTCATTTATCTTCTTTCTAGTATTCTGCATTCGGAGTCACCTAGTGCAG,8170 fluorescence intensity (a.u.)
14,TTTACATTACCGGTTGACCACTAAATTTCGAGCTATATCGCGGAGTCACCTAGTGCAG,8500 fluorescence intensity (a.u.)
15,CAAACCTTCGTCTTCGTCTTCCTCTCGCCGCTGATTCGATCGGAGTCACCTAGTGCAG,11000 fluorescence intensity (a.u.)
16,TGGTTGTCTTCAGATTCGATGCGTATGTGCTGAATGTCTACGGAGTCACCTAGTGCAG,8150 fluorescence intensity (a.u.)
17,TCTTTCTATCATATGCTGCCTGACTTCATTCGTTATATGACGGAGTCACCTAGTGCAG,9570 fluorescence intensity (a.u.)
18,TTTCATTTTTCATCGTCTTTTTTTTCAATCCGATATCTTTCGGAGTCACCTAGTGCAG,9340 fluorescence intensity (a.u.)
19,AACAGCCTGTTTTTGTGTGTTTTTTTCGTAAGTAATTAGTCGGAGTCACCTAGTGCAG,8760 fluorescence intensity (a.u.)
20,CATATATTGGTGTTGTGTGTGGGTGGGTGGGGCGGTGCTTCGGAGTCACCTAGTGCAG,30900 fluorescence intensity (a.u.)
21,GTGGTAGAGGCGGCGGGGCGGGAGGTCGAACCGGAGCTGACGGAGTCACCTAGTGCAG,9910 fluorescence intensity (a.u.)

# Rewritten as tab-separated lines: entries from further up
row	Sequence	binding signal
3	GAGTTGGTTGTGGAGTGCACTGGAGAAGGGGTGGTTTTTGCGGAGTCACCTAGTGCAG	9160 fluorescence intensity (a.u.)
4	CATTTCTTGCTATCATTTTTTCGGGAGGCTTGTATGCCATCGGAGTCACCTAGTGCAG	9200 fluorescence intensity (a.u.)
5	TTCTTAACATGTTCGCATATGAAAATAGACTTATTTTTTACGGAGTCACCTAGTGCAG	8130 fluorescence intensity (a.u.)
6	TGGAGGGGTGAGGGAGGTGGAGCAGACGTCAGAGGGGAAGCGGAGTCACCTAGTGCAG	9450 fluorescence intensity (a.u.)
7	CGCCAACCGCCTCGTCGAGCTCTACTCCCGCGCGGGCCTCCGGAGTCACCTAGTGCAG	9200 fluorescence intensity (a.u.)
8	ATATGCTCTTTTCCACCATTTTGCAGGTTAAGGATAGACCCGGAGTCACCTAGTGCAG	9560 fluorescence intensity (a.u.)
9	TTCGCTTTTTCCTTTTTTCTGATTATTTTTTTAATTTTTACGGAGTCACCTAGTGCAG	8190 fluorescence intensity (a.u.)
10	CCTCATCTCATGCCTCACTCGCCTAGAACCCCTCCTCCTCCGGAGTCACCTAGTGCAG	9310 fluorescence intensity (a.u.)
11	ACCACCCACCGGTTTCGGTTTCGCCCACCATTGGAGGCGACGGAGTCACCTAGTGCAG	11500 fluorescence intensity (a.u.)
12	AGGGCACGGGAACGGGAGACGGGTGGGAGGGATTCGTATGCGGAGTCACCTAGTGCAG	10500 fluorescence intensity (a.u.)
13	TTCTGTCGCCTCATTTATCTTCTTTCTAGTATTCTGCATTCGGAGTCACCTAGTGCAG	8170 fluorescence intensity (a.u.)

# Next part.

row,Sequence,binding signal
1,GCGATAGTGACATATACCCCTAGTTTTATTGCAATCTGACCGGAGTCACCTAGTGCAG,8200 fluorescence intensity (a.u.)
2,TCTGTTCCCCTCGCCGTCGCCGCCACCGCCACCGTGACCGCGGAGTCACCTAGTGCAG,9010 fluorescence intensity (a.u.)
3,CTCTTCCATCTCCTCCACTTCTCAATACCTCTTCATTCTCCGGAGTCACCTAGTGCAG,9440 fluorescence intensity (a.u.)
4,CACCGACCTGTCCTCCGACCAGAATTCCGATCGCCACCCCCGGAGTCACCTAGTGCAG,8140 fluorescence intensity (a.u.)
5,ACTCATACTCTCTACGTCCATTTGATATTTTACTTAGTCACGGAGTCACCTAGTGCAG,10500 fluorescence intensity (a.u.)
6,GCTAGGGGTAGGGAAGGAAAAACATACATGTGGCTTCGTGCGGAGTCACCTAGTGCAG,8710 fluorescence intensity (a.u.)
7,CATTGTTCGTGACCTCCCCAACTTTCCCACGGGCGGCCACCGGAGTCACCTAGTGCAG,8790 fluorescence intensity (a.u.)
8,GTTCTGTTGTATCCTTTCTTCACGGCAAACGCATGATTTTCGGAGTCACCTAGTGCAG,9930 fluorescence intensity (a.u.)
9,GTTCCCAACCTCTGCCTCTCATGACTCATTTTCTGCGCGCCGGAGTCACCTAGTGCAG,9910 fluorescence intensity (a.u.)
10,ACGGGGACAGGTTTGTGATGTTTGATCACCTTTAAAATGCCGGAGTCACCTAGTGCAG,9000 fluorescence intensity (a.u.)
11,GTACATTCTAAGGTCCCCATTGTTTGGCTTATTTCCTAATCGGAGTCACCTAGTGCAG,10900 fluorescence intensity (a.u.)
12,CTGTCCAAATCCACCACCAGCTTCTTTCTTTCCATTTTGCCGGAGTCACCTAGTGCAG,10600 fluorescence intensity (a.u.)
13,TATGTTCAGGCAATCTCTGAGTCTCGTCAACCTAATTAACCGGAGTCACCTAGTGCAG,8820 fluorescence intensity (a.u.)
14,TATCCTCCTACTTCCGTTACCTTTATAGTTCGCGTCCTCCCGGAGTCACCTAGTGCAG,8720 fluorescence intensity (a.u.)
15,CTTTTTTTTCTGAAGACTACACACACTAATAAAACACTAACGGAGTCACCTAGTGCAG,12200 fluorescence intensity (a.u.)
16,ATTTGTCACTTTTAGGTTCGTCACTTATCCAAATGCTCCTCGGAGTCACCTAGTGCAG,8860 fluorescence intensity (a.u.)
17,CCCCTCCGCTAGTAATCACCGACTCTCCCCATTGTGTCACCGGAGTCACCTAGTGCAG,8190 fluorescence intensity (a.u.)
18,GATACTTAAAAACCGATGTCTTTTCTTTTCGAACATATCTCGGAGTCACCTAGTGCAG,10600 fluorescence intensity (a.u.)
19,CCACCGCTGCCGGCGGCTTCCTCCCCACCGCCGTTGACCTCGGAGTCACCTAGTGCAG,10400 fluorescence intensity (a.u.)
20,CGTCAGCATCTTCATCGACATGCCCACCGACGACTCCGGCCGGAGTCACCTAGTGCAG,10500 fluorescence intensity (a.u.)
21,AGGGCGCCGTCGTTCGTCATGCTGCTTCCGCCGCATCCTGCGGAGTCACCTAGTGCAG,9240 fluorescence intensity (a.u.)
